{"source": "patent US4504476A", "about": "“Method of administering calcium channel blocking agents” (priority 1983, dated 1985)", "tested_on": "retrogradely perfused rat hearts (Langendorff preparation)", "experiment": "contractility (dP/dt) of retrogradely perfused rat hearts (Langendorff preparation)", "conditions": "washout", "note": "At least one structure is not confirmed: it was looked up by name or label, or the drawing left a doubt.", "data": [{"molecule": "COCCOC(=O)C1=C(C)NC(C)=C(C(=O)OC(C)C)C1c1cccc([N+](=O)[O-])c1", "note": "(centres unmarked) [nimodipine, isopropyl-(2-methoxyethyl)-2,6-dimethyl-4-(3-nitrophenyl)-1,4-dihydropyridine-3,5-dicarboxylate]", "values": [{"measurement": "reversibility of negative inotropic response", "value": "fully reversible"}, {"measurement": "time for effects to be washed out", "value": "≤ 30", "unit": "min"}]}]}
